Assay results reported in article doi:10.1101/403675.
These are yes or no findings as the source states them, for the method shown. Binding calls can cover weak binding; strength is not graded here.

Target: T1, Onzin from Mus musculus (MmOnzin) (Mus musculus) (UniProt Q9JI48)
T1 sequence: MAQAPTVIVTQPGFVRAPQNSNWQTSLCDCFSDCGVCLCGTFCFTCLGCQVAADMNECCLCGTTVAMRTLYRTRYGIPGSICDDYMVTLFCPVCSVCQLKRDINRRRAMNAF
Assay: two-hybrid

In the case of “C-terminal region of MLH3 from Mus musculus (MmMlh3) (domain or fragment)”, the binding is reported as “binds”.
